Source: PMC8639990

The chains behind the UniProt entries cited, without tags or fusion partners.
UniProt Q60974: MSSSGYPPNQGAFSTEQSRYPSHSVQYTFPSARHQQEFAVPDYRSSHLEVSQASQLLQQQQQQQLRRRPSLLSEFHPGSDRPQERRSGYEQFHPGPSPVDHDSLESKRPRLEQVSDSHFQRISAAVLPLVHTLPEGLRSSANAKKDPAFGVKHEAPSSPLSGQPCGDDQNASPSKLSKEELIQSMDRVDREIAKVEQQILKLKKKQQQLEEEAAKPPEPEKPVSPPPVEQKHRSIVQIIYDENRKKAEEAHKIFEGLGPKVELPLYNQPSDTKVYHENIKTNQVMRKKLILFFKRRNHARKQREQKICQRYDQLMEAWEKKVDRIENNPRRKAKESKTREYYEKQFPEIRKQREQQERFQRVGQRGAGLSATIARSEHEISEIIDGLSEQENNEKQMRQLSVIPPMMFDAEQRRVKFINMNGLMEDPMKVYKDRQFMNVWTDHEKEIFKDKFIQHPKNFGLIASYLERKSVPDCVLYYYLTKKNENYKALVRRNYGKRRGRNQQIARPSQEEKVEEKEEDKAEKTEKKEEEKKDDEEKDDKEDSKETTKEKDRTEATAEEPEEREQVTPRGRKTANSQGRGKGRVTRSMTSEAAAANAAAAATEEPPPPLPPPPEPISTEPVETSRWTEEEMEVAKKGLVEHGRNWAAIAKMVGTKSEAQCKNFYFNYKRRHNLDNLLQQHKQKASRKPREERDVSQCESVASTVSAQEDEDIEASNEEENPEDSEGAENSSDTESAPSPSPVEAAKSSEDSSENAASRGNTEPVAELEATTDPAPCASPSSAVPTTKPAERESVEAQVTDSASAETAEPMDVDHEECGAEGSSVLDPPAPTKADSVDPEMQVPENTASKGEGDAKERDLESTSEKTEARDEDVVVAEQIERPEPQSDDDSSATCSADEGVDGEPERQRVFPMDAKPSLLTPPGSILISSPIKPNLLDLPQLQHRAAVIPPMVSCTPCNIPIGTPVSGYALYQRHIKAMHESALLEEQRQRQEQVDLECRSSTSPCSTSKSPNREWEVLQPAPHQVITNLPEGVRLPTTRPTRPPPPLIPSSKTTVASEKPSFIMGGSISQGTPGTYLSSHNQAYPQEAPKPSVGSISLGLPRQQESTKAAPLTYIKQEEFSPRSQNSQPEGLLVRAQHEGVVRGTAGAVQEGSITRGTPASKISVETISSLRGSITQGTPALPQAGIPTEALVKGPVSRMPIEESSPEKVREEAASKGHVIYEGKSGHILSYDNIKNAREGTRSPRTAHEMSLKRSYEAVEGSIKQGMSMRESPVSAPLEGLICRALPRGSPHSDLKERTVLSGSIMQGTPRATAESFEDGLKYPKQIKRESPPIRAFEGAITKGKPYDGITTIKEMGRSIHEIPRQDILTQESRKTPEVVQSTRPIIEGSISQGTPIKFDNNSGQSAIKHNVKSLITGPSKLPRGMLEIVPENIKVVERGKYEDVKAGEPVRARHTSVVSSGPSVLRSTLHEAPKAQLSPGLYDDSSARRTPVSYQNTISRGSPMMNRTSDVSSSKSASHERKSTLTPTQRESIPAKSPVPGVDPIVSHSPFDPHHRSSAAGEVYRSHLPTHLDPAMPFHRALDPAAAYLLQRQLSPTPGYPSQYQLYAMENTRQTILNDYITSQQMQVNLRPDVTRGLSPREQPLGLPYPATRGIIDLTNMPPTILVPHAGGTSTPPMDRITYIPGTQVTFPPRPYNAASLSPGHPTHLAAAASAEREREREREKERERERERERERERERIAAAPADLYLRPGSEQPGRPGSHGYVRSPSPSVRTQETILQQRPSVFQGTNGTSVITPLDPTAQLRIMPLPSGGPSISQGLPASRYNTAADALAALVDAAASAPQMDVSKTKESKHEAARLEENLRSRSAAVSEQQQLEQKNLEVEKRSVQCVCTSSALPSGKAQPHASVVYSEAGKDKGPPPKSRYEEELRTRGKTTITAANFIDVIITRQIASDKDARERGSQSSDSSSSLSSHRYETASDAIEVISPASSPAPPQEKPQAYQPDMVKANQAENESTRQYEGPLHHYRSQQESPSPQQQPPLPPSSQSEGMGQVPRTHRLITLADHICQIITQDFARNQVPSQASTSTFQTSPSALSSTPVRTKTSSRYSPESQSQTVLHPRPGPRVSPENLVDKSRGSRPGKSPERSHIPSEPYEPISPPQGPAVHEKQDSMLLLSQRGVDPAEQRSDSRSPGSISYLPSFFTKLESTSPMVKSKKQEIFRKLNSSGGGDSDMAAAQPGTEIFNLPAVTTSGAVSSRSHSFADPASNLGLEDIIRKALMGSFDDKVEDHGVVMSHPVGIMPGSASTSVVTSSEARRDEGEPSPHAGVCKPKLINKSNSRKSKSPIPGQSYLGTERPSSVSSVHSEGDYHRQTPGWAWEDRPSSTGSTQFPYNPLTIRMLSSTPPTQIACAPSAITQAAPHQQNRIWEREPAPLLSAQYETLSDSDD
UniProt Q8BZQ7: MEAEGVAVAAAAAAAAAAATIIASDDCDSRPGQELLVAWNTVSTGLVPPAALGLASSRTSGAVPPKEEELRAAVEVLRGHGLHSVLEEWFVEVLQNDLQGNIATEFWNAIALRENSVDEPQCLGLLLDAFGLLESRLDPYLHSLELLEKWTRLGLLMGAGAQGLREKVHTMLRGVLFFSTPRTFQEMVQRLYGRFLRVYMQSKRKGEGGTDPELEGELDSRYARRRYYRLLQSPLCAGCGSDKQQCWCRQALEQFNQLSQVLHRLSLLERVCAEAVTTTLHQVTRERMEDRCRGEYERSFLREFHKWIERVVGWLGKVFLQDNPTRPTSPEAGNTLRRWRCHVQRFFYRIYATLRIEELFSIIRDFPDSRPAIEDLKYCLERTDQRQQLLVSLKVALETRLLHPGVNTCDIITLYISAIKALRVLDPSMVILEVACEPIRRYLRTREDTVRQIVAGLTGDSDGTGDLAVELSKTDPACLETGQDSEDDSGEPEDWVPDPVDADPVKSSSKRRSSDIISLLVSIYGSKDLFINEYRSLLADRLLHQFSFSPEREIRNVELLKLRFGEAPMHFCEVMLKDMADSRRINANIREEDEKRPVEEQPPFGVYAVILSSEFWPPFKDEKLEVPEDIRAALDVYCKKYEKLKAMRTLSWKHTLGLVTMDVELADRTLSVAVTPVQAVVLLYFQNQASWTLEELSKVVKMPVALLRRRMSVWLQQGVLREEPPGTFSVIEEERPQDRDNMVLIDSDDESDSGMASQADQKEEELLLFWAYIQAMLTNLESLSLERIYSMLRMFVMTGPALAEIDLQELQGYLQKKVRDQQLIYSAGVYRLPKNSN
UniProt Q61136: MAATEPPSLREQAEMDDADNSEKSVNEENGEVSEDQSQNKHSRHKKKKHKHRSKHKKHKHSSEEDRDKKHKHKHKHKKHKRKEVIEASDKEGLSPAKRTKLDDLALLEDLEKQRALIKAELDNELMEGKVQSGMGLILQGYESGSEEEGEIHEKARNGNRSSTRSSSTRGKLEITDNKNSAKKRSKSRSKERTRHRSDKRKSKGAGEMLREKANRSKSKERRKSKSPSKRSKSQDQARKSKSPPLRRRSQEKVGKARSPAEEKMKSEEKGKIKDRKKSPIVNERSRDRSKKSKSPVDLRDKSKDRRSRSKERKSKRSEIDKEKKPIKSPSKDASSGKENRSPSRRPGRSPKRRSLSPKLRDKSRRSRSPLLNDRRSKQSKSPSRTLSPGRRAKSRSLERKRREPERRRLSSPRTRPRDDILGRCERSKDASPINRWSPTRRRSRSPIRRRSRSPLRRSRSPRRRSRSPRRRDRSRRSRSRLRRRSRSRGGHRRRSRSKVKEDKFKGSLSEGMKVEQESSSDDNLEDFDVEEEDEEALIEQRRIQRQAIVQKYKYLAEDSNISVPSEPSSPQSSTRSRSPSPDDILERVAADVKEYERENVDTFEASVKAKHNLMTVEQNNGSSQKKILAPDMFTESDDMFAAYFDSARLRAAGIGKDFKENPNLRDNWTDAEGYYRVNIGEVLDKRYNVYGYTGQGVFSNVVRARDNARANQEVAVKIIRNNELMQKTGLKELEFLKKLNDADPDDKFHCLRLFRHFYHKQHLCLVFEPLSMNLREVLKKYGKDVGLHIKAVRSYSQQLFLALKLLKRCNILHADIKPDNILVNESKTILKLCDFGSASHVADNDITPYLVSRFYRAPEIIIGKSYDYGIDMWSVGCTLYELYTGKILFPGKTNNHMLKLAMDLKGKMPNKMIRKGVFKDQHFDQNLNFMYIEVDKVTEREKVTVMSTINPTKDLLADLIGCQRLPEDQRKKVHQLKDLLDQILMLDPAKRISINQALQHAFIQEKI
UniProt P53995: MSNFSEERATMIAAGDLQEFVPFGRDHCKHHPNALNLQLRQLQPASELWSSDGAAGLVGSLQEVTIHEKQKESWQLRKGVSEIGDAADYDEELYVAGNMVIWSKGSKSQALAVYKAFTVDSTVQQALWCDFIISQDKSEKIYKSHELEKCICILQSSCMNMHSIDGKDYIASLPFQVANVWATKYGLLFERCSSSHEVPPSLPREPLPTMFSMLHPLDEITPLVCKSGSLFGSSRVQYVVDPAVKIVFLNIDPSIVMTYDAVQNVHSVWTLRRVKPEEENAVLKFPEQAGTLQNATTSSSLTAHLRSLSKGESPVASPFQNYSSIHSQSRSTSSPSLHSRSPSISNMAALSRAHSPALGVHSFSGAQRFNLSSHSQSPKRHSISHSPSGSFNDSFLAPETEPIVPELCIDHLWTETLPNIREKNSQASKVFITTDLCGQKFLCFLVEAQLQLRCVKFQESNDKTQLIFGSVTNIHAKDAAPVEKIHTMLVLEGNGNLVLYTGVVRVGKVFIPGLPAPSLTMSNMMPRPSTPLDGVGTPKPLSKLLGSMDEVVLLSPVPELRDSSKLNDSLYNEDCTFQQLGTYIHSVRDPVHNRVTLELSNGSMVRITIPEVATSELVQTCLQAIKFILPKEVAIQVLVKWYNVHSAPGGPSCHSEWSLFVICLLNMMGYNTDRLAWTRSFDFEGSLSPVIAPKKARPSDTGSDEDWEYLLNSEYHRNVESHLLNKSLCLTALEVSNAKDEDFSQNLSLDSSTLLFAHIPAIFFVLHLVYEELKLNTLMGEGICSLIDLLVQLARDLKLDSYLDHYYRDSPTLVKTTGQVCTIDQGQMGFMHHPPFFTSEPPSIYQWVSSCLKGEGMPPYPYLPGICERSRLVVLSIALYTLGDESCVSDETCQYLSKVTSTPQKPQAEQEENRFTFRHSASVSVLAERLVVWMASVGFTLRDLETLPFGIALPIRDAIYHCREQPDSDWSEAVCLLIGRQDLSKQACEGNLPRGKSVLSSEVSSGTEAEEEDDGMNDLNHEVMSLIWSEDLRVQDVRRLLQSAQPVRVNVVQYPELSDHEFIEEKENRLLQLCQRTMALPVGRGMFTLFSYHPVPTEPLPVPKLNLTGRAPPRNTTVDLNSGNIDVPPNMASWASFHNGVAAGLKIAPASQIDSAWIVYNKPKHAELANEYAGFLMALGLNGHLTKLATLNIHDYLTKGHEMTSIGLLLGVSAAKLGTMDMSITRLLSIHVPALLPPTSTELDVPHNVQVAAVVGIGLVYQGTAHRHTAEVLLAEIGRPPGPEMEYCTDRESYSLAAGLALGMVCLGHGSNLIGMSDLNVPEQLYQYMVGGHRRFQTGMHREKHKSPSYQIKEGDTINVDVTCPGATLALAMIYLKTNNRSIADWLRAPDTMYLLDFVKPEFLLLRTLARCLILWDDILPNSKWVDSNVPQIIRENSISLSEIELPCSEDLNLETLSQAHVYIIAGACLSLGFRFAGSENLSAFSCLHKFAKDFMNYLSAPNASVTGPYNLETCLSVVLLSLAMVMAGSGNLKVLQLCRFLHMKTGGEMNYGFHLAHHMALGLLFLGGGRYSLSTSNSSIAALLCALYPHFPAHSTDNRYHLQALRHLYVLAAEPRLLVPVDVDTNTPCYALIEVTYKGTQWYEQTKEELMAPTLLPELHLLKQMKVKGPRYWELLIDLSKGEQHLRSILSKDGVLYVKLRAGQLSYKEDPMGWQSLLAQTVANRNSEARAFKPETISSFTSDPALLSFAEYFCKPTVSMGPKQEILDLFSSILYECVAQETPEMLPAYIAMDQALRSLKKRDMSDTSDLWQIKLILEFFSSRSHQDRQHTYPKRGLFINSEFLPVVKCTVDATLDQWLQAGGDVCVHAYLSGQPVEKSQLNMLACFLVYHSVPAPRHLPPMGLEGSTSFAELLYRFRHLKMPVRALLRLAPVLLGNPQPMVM

T1: V5-tagged SETD5 with deletion of amino acids 437–918 (Δ437–918) (mouse) (UniProt Q5XJV7)
T1 sequence: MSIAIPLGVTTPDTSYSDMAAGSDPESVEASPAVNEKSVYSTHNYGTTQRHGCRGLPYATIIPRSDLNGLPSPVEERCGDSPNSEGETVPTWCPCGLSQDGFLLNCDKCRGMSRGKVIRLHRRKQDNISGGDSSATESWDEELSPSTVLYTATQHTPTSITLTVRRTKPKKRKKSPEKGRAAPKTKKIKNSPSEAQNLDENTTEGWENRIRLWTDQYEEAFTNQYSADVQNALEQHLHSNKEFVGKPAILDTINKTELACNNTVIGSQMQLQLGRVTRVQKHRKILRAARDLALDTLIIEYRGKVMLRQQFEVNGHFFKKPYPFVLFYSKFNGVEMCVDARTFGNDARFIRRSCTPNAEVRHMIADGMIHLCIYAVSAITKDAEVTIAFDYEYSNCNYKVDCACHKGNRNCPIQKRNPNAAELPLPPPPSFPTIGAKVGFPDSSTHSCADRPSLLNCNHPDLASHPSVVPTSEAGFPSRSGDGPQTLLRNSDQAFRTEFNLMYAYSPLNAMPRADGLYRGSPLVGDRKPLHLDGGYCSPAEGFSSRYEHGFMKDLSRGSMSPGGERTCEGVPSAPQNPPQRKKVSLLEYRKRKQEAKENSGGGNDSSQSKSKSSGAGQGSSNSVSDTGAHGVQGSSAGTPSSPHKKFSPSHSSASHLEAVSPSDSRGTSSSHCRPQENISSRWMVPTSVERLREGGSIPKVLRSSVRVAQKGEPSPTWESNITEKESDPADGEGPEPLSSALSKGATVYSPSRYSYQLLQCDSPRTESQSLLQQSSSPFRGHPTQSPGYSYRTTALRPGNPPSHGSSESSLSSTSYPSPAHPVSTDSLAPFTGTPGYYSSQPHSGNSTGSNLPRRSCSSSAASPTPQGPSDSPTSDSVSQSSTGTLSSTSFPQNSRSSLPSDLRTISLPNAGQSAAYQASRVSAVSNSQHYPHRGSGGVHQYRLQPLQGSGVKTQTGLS

T2: V5-tagged SETD5 (SET domain-containing 5), wild type (mouse) (UniProt Q5XJV7)
T2 sequence: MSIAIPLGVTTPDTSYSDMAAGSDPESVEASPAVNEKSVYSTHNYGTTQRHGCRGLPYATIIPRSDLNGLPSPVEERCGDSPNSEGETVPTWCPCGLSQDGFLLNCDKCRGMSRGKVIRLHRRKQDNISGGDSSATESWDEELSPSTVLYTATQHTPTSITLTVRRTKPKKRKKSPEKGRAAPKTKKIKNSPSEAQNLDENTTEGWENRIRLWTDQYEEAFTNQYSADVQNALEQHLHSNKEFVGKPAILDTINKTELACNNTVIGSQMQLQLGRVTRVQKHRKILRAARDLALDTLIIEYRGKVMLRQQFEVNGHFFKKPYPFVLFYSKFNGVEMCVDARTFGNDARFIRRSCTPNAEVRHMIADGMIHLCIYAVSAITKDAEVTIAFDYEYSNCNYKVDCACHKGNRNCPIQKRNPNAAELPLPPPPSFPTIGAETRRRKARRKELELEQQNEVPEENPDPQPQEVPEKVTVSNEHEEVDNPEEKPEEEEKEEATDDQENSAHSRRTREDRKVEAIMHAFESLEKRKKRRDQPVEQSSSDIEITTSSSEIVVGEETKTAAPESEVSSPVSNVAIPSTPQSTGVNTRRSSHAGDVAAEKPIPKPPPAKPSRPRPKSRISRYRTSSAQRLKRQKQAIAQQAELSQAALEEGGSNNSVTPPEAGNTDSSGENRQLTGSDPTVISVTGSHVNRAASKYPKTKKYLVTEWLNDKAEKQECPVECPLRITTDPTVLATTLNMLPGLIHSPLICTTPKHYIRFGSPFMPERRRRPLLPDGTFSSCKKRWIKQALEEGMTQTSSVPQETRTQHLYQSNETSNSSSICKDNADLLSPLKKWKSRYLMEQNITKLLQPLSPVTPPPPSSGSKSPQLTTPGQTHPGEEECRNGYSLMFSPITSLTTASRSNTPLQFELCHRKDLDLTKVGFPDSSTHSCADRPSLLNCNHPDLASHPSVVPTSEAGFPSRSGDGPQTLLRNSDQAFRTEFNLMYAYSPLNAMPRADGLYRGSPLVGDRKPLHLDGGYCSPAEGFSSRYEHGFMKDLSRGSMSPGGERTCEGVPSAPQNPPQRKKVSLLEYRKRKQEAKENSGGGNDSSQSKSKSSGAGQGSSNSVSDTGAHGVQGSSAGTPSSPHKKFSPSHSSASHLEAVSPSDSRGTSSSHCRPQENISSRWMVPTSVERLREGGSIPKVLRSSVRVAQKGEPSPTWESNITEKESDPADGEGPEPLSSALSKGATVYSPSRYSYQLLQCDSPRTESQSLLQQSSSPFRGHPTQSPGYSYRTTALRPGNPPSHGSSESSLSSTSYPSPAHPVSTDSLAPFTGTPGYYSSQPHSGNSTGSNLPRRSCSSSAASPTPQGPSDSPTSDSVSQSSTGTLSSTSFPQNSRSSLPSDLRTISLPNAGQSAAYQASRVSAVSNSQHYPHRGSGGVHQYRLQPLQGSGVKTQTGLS

B1: TBLR1 (protein, UniProt Q8BHJ5 1-514)
chain: MSISSDEVNFLVYRYLQESGFSHSAFTFGIESHISQSNINGALVPPAALISIIQKGLQYVEAEVSINEDGTLFDGRPIESLSLIDAVMPDVVQTRQQAYRDKLAQQHAAAAAAAAAATNQQGSAKNGENTANGEENGAHTIANNHTDMMEVDGDVEIPSNKAVVLRGHESEVFICAWNPVSDLLASGSGDSTARIWNLSENSTSGPTQLVLRHCIREGGQDVPSNKDVTSLDWNSEGTLLATGSYDGFARIWTKDGNLASTLGQHKGPIFALKWNKKGNFILSAGVDKTTIIWDAHTGEAKQQFPFHSAPALDVDWQSNNTFASCSTDMCIHVCKLGQDRPIKTFQGHTNEVNAIKWDPTGNLLASCSDDMTLKIWSMKQDNCVHDLQAHNKEIYTIKWSPTGPGTNNPNANLMLASASFDSTVRLWDVDRGICIHTLTKHQEPVYSVAFSPDGRYLASGSFDKCVHIWNTQTGALVHSYRGTGGIFEVCWNAAGDKVGASASDGSVCVLDLRK
B2: PLRG1 (protein, UniProt Q922V4 1-513)
chain: MVEEVQKHSVHTLVFRSLKRTHDMFVADNGKPVPLDEESHKRKMAIKLRNEYGPVLHMPTSKENLKEKGPQNATDSYPHKQYPANQGQDVEYLVTGTHPYPAGPGVALTADTKIQRMPSESAAQSLAVALPSQTRVDANRTGPAGSEYRHPGASDRSQPTAMNSIMETGNTKNSALMAKKAPTMPKPQWHPPWKLYRVISGHLGWVRCIAVEPGNQWFVTGSADRTIKIWDLASGKLKLSLTGHISTVRGVIVSTRSPYLFSCGEDKQVKCWDLEYNKVIRHYHGHLSAVYGLDLHPTLDVLVTCSRDSTARIWDVRTKASVHTLSGHTNAVATVRCQAAEPQIITGSHDTTIRLWDLVAGKTRVTLTNHKKSVRAVVLHPLLYTFASGSPDNIKQWKFPDGGFIQNLSGHNAIINTLAVNADGVLVSGADNGTMHLWDWRTGYNFQRVHAAVQPGSLDSESGIFACAFDRSESRLLTAEADKTIKVYREDETATEETHPVSWKPEIIKRKRF
B3: TBL1 (also known as TBL1X) (protein, UniProt Q9QXE7 1-527)
chain: MSITSDEVNFLVYRYLQESGFSHSAFTFGIESHISQSNINGTLVPPAALISILQKGLQYVEAEISINEDGTVFDGRPIESLSLIDAVMPDVVQTRQQAFREKLAQQQANAAAAAAAAAATATSTAATTPAAAAQQNPPKNGEATVNGEENGAHAINNHSKPMEIDGDVEIPPSKATVLRGHESEVFICAWNPVSDLLASGSGDSTARIWNLNENSNGGSTQLVLRHCIREGGHDVPSNKDVTSLDWNSDGTLLATGSYDGFARIWTEDGNLASTLGQHKGPIFALKWNKKGNYILSAGVDKTTIIWDAHTGEAKQQFPFHSAPALDVDWQNNTTFASCSTDMCIHVCRLGCDRPVKTFQGHTNEVNAIKWDPSGMLLASCSDDMTLKIWSMKQDACVHDLQAHSKEIYTIKWSPTGPATSNPNSNIMLASASFDSTVRLWDVERGVCIHTLTKHQEPVYSVAFSPDGKYLASGSFDKCVHIWNTQSGSLVHSYRGTGGIFEVCWNARGDKVGASASDGSVCVLDLRK

Legend:
Assay in all cases: affinity purification with mass spectrometry; nuclear extracts of retrovirally transduced 3T3-L1 preadipocytes (WT-, ΔSET- or Δ437-918-SETD5-V5); anti-V5 antibody cross-linked to Dynabeads protein G, 18 h at 4 °C; washes with 200 mM KCl, 0.1% Nonidet P-40; trypsin digestion, LC/MS/MS
[1] = biological target: T1, V5-tagged SETD5 with deletion of amino acids 437–918 (Δ437–918) (mouse)
[2] = biological target: T2, V5-tagged SETD5 (SET domain-containing 5), wild type (mouse)
[3] = biological target: V5-tagged SET domain deletion mutant (ΔSET) SETD5 (mouse) (UniProt Q5XJV7)

Molecule	binding [1]	binding [2]	binding [3]
RNF213 (from UniProt E9Q555 1-5148) (enzyme)	binds	binds	binds
NCoR (nuclear receptor co-repressor) (from UniProt Q60974 1-2453)	no binding	binds	binds
ANAPC2 (from UniProt Q8BZQ7 1-837)	binds	binds	binds
PRP4B (from UniProt Q61136 1-1007)	–	binds	no binding
ANAPC1 (from UniProt P53995 1-1944)	binds	binds	binds
B1	no binding	binds	binds
B2	–	binds	no binding
B3	no binding	binds	binds

Results are given in words; binding and its absence hold for the method and conditions named. Binding seen in cells or lysates may run through a third protein. A yes stands for co-enrichment or nearness to the bait. Other partners may have been found. For some of these results: A no says only that the protein was not detected with the bait. For some of these results: Sequences can lack the tags named with a protein.
